In the supplement of paper PMC10849652:
This is one part of the list.

By UniProt entry, the sequences of proteins in these tests, tags left out. Where a name states a change or a piece, a line headed by the entry shows the natural chain unless it says otherwise.
UniProt P57768: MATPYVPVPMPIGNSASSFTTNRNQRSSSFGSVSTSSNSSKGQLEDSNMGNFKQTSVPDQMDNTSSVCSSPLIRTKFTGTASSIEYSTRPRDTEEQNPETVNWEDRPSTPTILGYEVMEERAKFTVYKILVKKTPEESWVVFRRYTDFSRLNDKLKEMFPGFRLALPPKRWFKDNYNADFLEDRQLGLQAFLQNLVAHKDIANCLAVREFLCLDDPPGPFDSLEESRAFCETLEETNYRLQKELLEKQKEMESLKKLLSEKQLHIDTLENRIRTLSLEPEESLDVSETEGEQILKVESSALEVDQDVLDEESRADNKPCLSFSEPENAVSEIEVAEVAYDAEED
UniProt P35712: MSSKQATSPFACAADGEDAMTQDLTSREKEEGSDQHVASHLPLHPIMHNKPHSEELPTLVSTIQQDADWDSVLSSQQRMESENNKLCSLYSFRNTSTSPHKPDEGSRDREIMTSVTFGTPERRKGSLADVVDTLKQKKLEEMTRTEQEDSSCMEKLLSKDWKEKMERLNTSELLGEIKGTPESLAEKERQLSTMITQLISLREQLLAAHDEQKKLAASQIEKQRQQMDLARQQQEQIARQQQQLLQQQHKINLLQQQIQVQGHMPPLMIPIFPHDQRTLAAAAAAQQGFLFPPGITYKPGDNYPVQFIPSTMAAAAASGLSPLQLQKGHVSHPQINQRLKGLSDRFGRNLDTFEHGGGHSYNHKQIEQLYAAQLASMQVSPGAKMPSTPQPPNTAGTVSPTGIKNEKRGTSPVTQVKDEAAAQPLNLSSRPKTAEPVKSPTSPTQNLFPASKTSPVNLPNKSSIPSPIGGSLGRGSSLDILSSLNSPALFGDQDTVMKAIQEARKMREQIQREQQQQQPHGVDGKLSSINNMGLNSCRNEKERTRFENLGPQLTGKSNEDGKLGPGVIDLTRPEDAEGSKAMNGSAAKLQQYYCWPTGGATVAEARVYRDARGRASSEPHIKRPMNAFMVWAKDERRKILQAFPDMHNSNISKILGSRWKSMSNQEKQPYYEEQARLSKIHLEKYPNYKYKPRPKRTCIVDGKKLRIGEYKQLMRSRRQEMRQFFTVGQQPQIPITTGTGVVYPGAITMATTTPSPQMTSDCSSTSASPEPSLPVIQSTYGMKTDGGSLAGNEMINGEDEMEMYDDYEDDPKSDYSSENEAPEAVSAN
UniProt P53814: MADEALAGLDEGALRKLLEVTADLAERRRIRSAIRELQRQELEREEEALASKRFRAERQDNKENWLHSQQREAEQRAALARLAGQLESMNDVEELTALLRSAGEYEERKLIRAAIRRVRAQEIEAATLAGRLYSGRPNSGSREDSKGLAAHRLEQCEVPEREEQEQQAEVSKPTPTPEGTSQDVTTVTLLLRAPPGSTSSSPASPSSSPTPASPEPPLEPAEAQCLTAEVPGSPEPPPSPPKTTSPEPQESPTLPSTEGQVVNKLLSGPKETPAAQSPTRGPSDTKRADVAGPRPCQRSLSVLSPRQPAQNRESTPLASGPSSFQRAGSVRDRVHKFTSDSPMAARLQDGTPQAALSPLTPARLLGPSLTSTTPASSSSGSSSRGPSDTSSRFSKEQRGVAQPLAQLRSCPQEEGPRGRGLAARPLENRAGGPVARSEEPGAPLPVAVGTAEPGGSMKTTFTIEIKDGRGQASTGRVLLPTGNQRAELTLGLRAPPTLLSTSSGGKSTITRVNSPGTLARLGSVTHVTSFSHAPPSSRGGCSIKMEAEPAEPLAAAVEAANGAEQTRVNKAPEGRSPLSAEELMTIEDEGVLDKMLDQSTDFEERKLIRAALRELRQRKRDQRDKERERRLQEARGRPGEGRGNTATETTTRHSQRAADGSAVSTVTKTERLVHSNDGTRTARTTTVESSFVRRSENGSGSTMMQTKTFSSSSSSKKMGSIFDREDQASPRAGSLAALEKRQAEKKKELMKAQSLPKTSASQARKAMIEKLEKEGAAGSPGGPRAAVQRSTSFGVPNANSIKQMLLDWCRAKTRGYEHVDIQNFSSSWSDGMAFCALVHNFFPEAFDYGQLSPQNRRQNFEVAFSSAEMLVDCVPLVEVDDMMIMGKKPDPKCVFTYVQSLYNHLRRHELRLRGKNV
UniProt P03973: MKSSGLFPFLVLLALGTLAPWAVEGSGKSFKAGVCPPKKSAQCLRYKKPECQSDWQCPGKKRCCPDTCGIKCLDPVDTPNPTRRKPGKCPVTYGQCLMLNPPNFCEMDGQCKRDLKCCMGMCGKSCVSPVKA
UniProt Q5VWJ9: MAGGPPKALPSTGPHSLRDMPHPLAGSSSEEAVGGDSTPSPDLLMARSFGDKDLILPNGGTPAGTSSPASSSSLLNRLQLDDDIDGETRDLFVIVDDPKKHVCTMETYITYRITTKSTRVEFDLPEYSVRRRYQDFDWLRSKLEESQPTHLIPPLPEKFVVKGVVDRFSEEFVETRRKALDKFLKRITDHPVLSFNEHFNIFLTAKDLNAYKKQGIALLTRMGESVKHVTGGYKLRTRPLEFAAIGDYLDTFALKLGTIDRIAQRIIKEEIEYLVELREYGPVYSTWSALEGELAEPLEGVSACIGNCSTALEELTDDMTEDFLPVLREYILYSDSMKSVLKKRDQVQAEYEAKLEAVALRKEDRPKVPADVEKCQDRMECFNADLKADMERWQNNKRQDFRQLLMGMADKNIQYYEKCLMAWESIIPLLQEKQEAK
UniProt P0DJ93: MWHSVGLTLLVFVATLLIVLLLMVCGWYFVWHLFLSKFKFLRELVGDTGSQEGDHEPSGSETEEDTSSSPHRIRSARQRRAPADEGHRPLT
UniProt Q9Y5W8: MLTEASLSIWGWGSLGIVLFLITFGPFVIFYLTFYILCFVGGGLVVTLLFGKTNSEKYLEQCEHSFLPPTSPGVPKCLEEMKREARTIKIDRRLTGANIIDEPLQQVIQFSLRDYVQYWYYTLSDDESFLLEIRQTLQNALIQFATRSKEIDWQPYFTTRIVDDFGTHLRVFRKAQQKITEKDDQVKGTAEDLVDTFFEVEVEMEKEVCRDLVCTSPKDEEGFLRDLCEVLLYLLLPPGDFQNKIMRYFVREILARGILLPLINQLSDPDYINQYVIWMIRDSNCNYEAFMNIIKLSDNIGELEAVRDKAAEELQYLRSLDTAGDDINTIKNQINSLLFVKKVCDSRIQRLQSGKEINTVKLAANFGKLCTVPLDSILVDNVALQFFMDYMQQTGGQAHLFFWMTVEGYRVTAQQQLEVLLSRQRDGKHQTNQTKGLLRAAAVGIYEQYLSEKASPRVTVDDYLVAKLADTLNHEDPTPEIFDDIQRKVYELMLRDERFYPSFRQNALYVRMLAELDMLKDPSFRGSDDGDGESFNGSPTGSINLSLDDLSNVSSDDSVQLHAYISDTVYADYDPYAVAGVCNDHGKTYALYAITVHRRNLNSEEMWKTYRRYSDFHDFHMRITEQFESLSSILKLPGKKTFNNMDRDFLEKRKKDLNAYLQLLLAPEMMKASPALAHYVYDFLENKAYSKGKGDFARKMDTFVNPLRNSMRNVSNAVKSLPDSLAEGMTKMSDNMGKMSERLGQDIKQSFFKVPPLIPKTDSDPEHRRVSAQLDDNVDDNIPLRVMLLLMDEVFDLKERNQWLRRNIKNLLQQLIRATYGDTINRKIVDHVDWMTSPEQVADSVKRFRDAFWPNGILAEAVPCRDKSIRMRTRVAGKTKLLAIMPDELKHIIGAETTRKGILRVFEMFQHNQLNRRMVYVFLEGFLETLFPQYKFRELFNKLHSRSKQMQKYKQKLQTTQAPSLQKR
UniProt Q13424: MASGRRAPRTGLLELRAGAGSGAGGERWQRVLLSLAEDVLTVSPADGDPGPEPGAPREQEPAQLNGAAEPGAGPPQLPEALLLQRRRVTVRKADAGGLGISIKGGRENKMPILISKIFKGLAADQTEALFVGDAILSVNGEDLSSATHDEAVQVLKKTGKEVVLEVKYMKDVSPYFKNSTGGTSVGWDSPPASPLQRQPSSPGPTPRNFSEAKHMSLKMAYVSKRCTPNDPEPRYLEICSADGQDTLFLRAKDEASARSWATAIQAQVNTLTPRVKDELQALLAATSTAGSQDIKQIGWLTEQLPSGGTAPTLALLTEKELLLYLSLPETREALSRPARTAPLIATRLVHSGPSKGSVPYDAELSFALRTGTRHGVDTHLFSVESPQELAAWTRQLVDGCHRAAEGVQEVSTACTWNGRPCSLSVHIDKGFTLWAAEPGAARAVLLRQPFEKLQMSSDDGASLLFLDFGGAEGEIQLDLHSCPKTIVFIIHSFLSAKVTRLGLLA
UniProt P84022, whole entry, looked up: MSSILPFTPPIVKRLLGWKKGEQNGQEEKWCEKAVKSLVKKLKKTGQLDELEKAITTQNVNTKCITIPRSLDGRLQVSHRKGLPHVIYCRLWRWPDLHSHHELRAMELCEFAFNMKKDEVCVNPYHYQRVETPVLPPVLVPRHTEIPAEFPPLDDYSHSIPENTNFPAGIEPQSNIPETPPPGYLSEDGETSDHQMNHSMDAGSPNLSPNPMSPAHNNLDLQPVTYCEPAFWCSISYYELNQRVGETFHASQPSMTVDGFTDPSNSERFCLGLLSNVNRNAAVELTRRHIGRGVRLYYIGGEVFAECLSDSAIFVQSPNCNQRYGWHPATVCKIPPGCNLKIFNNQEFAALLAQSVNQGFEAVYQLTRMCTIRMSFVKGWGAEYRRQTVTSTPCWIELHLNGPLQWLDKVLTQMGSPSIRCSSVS
UniProt Q96RF0: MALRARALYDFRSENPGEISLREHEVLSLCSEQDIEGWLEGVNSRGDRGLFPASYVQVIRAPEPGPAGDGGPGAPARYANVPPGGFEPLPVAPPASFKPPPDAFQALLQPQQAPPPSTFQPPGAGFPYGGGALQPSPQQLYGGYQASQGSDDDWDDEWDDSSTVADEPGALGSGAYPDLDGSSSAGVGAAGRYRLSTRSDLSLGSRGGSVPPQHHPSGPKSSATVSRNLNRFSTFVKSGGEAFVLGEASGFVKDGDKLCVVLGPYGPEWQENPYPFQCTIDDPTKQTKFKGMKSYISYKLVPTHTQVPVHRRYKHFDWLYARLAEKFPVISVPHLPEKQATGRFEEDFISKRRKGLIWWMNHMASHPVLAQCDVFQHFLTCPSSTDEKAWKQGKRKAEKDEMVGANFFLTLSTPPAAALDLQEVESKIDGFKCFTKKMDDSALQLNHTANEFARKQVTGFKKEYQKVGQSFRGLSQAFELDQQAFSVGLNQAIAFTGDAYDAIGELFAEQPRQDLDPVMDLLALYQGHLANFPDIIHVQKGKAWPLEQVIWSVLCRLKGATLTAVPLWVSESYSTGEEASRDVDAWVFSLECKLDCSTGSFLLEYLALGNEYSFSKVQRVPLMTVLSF
UniProt O60749: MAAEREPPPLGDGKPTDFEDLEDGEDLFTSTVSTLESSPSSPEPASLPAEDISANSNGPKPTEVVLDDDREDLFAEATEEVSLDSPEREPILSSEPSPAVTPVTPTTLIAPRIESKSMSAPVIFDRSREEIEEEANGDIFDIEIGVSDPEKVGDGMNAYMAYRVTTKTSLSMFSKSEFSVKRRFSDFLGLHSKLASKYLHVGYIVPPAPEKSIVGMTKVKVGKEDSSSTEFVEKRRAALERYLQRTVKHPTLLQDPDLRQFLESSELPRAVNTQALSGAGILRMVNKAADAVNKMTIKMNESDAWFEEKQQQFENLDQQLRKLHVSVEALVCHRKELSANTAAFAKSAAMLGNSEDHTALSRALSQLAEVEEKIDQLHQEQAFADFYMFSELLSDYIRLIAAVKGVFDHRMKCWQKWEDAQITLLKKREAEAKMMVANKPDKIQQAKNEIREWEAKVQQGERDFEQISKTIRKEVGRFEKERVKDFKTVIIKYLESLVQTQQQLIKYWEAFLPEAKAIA
UniProt P0DMW3: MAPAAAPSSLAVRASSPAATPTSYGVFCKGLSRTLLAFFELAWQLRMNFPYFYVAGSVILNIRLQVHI
UniProt Q86T20: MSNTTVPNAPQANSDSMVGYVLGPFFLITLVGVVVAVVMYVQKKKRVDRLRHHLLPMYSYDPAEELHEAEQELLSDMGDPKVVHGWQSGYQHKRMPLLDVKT
UniProt Q9H4I9: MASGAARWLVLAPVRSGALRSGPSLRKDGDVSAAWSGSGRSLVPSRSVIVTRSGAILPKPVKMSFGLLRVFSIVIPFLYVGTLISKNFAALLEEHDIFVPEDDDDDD
UniProt P08294: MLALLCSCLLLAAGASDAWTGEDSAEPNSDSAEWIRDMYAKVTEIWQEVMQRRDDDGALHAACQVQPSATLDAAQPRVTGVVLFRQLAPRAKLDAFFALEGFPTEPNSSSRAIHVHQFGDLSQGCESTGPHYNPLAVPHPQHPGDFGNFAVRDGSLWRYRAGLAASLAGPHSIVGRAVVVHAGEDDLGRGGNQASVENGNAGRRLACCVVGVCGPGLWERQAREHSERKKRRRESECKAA
UniProt P58511: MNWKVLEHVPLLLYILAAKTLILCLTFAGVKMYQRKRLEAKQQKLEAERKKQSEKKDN
UniProt O00161: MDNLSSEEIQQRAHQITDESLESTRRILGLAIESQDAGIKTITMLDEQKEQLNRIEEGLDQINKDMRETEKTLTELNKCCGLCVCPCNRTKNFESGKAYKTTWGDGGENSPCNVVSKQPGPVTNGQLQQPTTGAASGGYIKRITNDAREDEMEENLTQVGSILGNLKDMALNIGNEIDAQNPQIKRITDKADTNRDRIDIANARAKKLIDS

Assays:
Assay in all cases: log2 fold change, soluble protein after heating vs DMSO (PISA); higher = thermal stabilisation; K562 cells, 10 uM, 30 min; active = over 0.2 and 3.5 SD of the protein, either way, in both replicates (recomputed)
[1] = compound: C#Cc1cccc(Nc2ncnc3cc(OCCOC)c(OCCOC)cc23)c1 [erlotinib]
In short: (§1)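 Aliquots of K562 cells (2×10^6 cells/mL) treated with 10 μM compound for 30 min were heated for 3 min over 48°C-58°C. After pooling and extraction in PBS with 0.5% NP-40 at 4°C, soluble protein from a 21,000xg, 90 min spin was quantified by TMTpro 16plex LC-MS/MS with channel sums equalised. Thermal stability is expressed against control samples, from duplicates, as a log2 fold change.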

[2] = compound: C1=CC(=C(C=C1Cl)C2=NC3=NC=CN=C3C(=N2)NC4=CC=NC=C4)F
In short: as §1

[3] = compound: C1=CC(=CC=C1C2=NC3=C(N2)C=C(C=C3)C(=O)N)OC4=CC=C(C=C4)Cl
In short: as §1

[4] = compound: C1=CC2=NC=CN=C2C=C1/C=C/3\C(=O)NC(=O)S3
In short: as §1

[5] = compound: C1=CC=C(C=C1)C2=NC(=C(N2)C3=CC=NC=C3)C4=CC(=C(C=C4)Cl)O
In short: as §1

[6] = compound: C1CCN(C1)C(=O)NC2=CC=CC(=C2)NC3=NC=C(C(=N3)NCCC4=CN=CN4)Br
In short: as §1

[7] = compound: C1CN(CCC1(CC2=CC=C(C=C2)Cl)N)C3=NC=NC4=C3C=CN4
In short: as §1

[8] = compound: C/C(=N\NC(=O)C1=CC(=CC=C1)S(=O)(=O)N2CCOCC2)/C3=C(C=CC(=C3)Cl)O
In short: as §1

[9] = compound: C1=CC2=C(C=CC(=C2)/C=C\3/C(=O)NC(=NCC4=CC=CS4)S3)N=C1
In short: as §1

[10] = compound: C1=CC=C2C(=C1)C3=NNC4=CC=CC(=C43)C2=O
In short: as §1

Measured: log2 fold change

SNX16 (UniProt P57768)
inactive: [1] 0.019 | [2] 0.092 | [3] 0.013 | [4] 0.186 | [5] -0.024

SMG7 isoform 4 (UniProt Q92540)
inactive: [1] 0.19 | [2] -0.269 | [3] 0 | [4] -0.07 | [5] 0.015 | [6] -0.006 | [7] 0.139

SNRPD2 (UniProt K7EJB5)
inactive: [8] -0.198 | [9] 0.214 | [4] 0.202 | [5] -0.254 | [10] -0.072 | [6] 0.148 | [7] -0.138

SMARCB1 (UniProt Q12824)
inactive: [6] 0.038 | [7] 0.025

SP2 (UniProt Q02086)
inactive: [8] 0 | [9] 0.229 | [10] 0.095

SNTB2 (UniProt Q13425)
inactive: [8] 0.061 | [2] -0.009 | [9] 0.049 | [4] 0.005 | [5] -0.231 | [10] -0.012 | [6] -0.047 | [7] 0.146

SOX6 (UniProt P35712)
inactive: [5] 0.058

SMTN isoform 6 (UniProt P53814)
inactive: [1] 0.184 | [2] -0.156 | [3] 0.082 | [6] 0.166 | [7] 0.131

SNRPN isoform 2 (UniProt P63162)
inactive: [8] 0.137 | [9] -0.276 | [5] -0.163 | [10] -0.188

SLPI (UniProt P03973)
inactive: [5] -0.072

SNX30 (UniProt Q5VWJ9)
inactive: [2] -0.108

SMG6 (UniProt Q86US8)
inactive: [2] -0.45 | [4] -0.041 | [6] -0.195 | [7] 0.323

SNX15 (UniProt Q9NRS6)
inactive: [8] 0.062 | [9] -0.088 | [4] -0.006 | [5] 0 | [10] -0.065 | [6] -0.166 | [7] -0.072

SMIM13 (UniProt P0DJ93)
inactive: [4] 0.006 | [5] -0.006

SMIM19 (UniProt Q96E16)
inactive: [8] 0.156 | [9] 0.115 | [5] 0.044 | [10] -0.038 | [6] 0.015 | [7] -0.314

SNX13 (UniProt Q9Y5W8)
inactive: [1] 0.289 | [2] 0.004 | [3] -0.048 | [4] -0.014 | [5] 0.105

SNTA1 (UniProt Q13424)
inactive: [8] 0.017 | [2] -0.115 | [9] 0.018 | [4] 0.041 | [5] 0.078 | [10] 0.025 | [6] -0.056 | [7] 0.013

SMAD3 (UniProt P84022)
inactive: [8] -0.006 | [9] 0.027 | [5] -0.081 | [10] 0.04 | [6] -0.191 | [7] 0.012

SLFN14 (UniProt P0C7P3)
inactive: [8] -0.737 | [2] 0.143 | [9] -0.152 | [4] 0.12 | [5] -0.127 | [10] -0.013 | [6] 0.197 | [7] -0.058

SNX18 (UniProt Q96RF0)
inactive: [1] -0.05 | [2] 0.174 | [3] 0.049

SNX2 isoform 2 (UniProt O60749)
inactive: [8] -0.244 | [2] 0.091 | [9] 0.402 | [4] -0.186 | [10] -0.033

SMIM10L1 (UniProt P0DMW3)
inactive: [1] -0.224 | [3] 0.021

SNX4 (UniProt O95219)
inactive: [5] -0.129

SMPD4 isoform 2 (UniProt Q9NXE4)
inactive: [8] -0.001 | [9] 0.134 | [4] -0.027 | [10] -0.003 | [6] -0.011 | [7] 0.05

SP4 (UniProt Q02446)
inactive: [5] -0.324 | [6] -0.135 | [7] 0.081

SMAGP (UniProt Q0VAQ4)
inactive: [8] 0.184 | [2] 0.16 | [9] -0.028 | [4] 0.161 | [10] 0.107 | [6] -0.132 | [7] -0.143

SMR3B (UniProt P02814)
inactive: [4] 0.054

SNX19 (UniProt Q92543)
inactive: [1] 0.08 | [2] -0.061 | [3] -0.213

SMIM29 (UniProt Q86T20)
inactive: [1] 0.145 | [3] -0.105

SMARCD1 (UniProt Q96GM5)
inactive: [1] 0.024 | [3] 0.038

SLC9B2 (UniProt Q86UD5)
inactive: [2] 0.016

Retrieved one by one from the entries so far (two):
SOX6 (UniProt P35712)
inactive: [5] 0.058

SMIM29 (UniProt Q86T20)
inactive: [1] 0.145 | [3] -0.105

(next part)

SMDT1 (UniProt Q9H4I9)
inactive: [8] 0.012 | [2] -0.032 | [9] 0.044 | [4] 0.067 | [10] 0.044 | [6] 0.01 | [7] 0.036

SOD3 (UniProt P08294)
inactive: [8] -0.01 | [9] -0.011 | [10] -0.094 | [6] 0.049 | [7] 0.214

Taken from the entries so far (2 entries):
SLPI (UniProt P03973)
inactive: [5] -0.072

SNX30 (UniProt Q5VWJ9)
inactive: [2] -0.108

Next entries follow:

SMPDL3A (UniProt Q92484)
inactive: [2] 0.087 | [6] -0.018 | [7] 0.084

SMIM11A (UniProt P58511)
inactive: [4] -0.028

SMARCAL1 (UniProt Q9NZC9)
inactive: [1] 0.068 | [3] -0.04 | [5] -0.151

SMPD1 (UniProt P17405)
inactive: [8] -0.122 | [9] -0.015 | [5] 0.317 | [10] -0.102

SMU1 isoform 2 (UniProt Q2TAY7)
inactive: [4] 0.061

SNAP23 isoform 2 (UniProt O00161)
inactive: [1] 0.133 | [2] -0.007 | [3] 0.044 | [6] -0.076 | [7] 0.226

SORBS3 (UniProt O60504)
inactive: [1] 0.038 | [2] 0.055 | [3] 0.114 | [4] -0.345
